# Reference: patent US6833443B1, “Gymnemic acid derivatives, process for the preparation thereof and use thereof as medicine” (Guilin Jiqi Pharmaceutical Co., Ltd., priority 1999, dated 2004)
# At least one structure is not confirmed: it was looked up by name or label, or the drawing left a doubt.
# Tested on: hyperlipidemia rats
# Assay: Effect of compound B on TG and cholesterol in serum of hyperlipidemia rats
# Format: in vivo, rat
# Details: Compound B 50, 100, 200 mg/kg; clofibrate 100 mg/kg
compound,measurement,value
CCOC(=O)C(C)(C)Oc1ccc(Cl)cc1 [clofibrate],Effect on contents of TG and cholesterol in blood serum (in words),reduced the contents of TG and cholesterol
